Measured values taken from PubChem BioAssay AID651640 (Broad Institute, 2012).
Several values for one entry are separate records, joined by “and”; a condition that tells them apart may be missing. Equal entries are not always repeated. Out of some 350,000 compounds screened, about 6,000 (1.7%) were called active. The shares of active, inactive and inconclusive entries below differ from those in the screen. No stated cut-off is given here; in the data, active means CPE inhibition above about 20% (passing the limit was not always enough); inconclusive means no clear call, values can overlap the other calls; tested in BHK-21 cells.

Assay: protection of cells from dengue 2 killing – plate reader, single concentration, primary screen (AID 651640);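 further: 0% = median of neutral control wells and 100% = median of positive control wells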
Settings: DENV2-infected cells, cytopathic effect rescue, at 9.99 µM, active compounds read high

Row | Compound | CPE inhibition
1 | C/C(=N\NC(=O)c1cc2c(s1)CCC(C)C2)c1ccc[nH]1 (configuration not stated) | inconclusive: 20.1%
2 | O=C(NCC1CCCCC1)[C@H]1N[C@H]2c3ccc(C4=CCCC4)c(=O)n3C[C@H]2[C@@H]1CO | inconclusive: 56.5%
3 | C[C@@H]1CCCCO[C@@H](CN(C)C(=O)Nc2ccc3c(c2)OCO3)[C@@H](C)CN([C@@H](C)CO)C(=O)c2cc(NC(=O)Nc3cccc4ccccc34)ccc2O1 | active: 61%
4 | CN(C)CCCNC(=O)C[C@@H]1CC[C@H]2[C@@H](COC[C@H](O)CN2CC2CCCCC2)O1 | inconclusive: 22.4%
5 | C[C@@H]1CN([C@@H](C)CO)C(=O)Cc2cc(N(C)C)ccc2O[C@H]1CN(C)C(=O)Nc1ccc2c(c1)OCO2 | active: 30%
6 | C[C@H]1CN([C@@H](C)CO)C(=O)c2cc(NC(=O)Nc3ccccc3)ccc2O[C@H]1CN(C)Cc1ccncc1 | inconclusive: 23.9%
7 | CC1=Nc2ccc(Br)cc2C(c2ccccc2)N1CC(=O)NN (configuration not stated) | inactive: -0.061%
8 | Cc1cc2nc(N3CCN(C(=O)c4cccs4)CC3)sc2cc1C | inconclusive: 22.6%
9 | COc1ccc(CCNC(=O)C/C(C)=N/NC(=O)c2ccc([N+](=O)[O-])cc2Cl)cc1OC | inconclusive: 37.7%
10 | C[C@@H]1CN([C@@H](C)CO)C(=O)CCCn2nncc2CO[C@H]1CN(C)S(=O)(=O)c1ccc2ccccc2c1 | inactive: -6.73% and inactive: 0.821% and inactive: 7.16%
11 | COc1ccc(NC(=O)Nc2ccc3c(c2)C(=O)N([C@@H](C)CO)C[C@@H](C)[C@@H](CN(C)Cc2ccccc2)OCCCC[C@H](C)O3)cc1 | active: 42.3%
12 | COc1ccc2c(Cl)c(C(=O)N/N=C/c3cccnc3)sc2c1 | inconclusive: 20.6%
13 | Cc1ccc(S(=O)(=O)N(C)C[C@@H]2Oc3ccc(NC(=O)c4ccncc4)cc3C(=O)N([C@@H](C)CO)C[C@H]2C)cc1 | inconclusive: 25.5%
14 | CC(C)C1Cc2[nH]c(=S)[nH]c(=O)c2C(c2ccc(F)cc2)O1 (configuration not stated) | active: 32.3%
15 | COc1ccc(NC(=O)Nc2ccc3c(c2)C(=O)N([C@@H](C)CO)C[C@@H](C)[C@@H](CN(C)S(=O)(=O)c2ccc(F)cc2)OCCCC[C@@H](C)O3)cc1 | active: 30%
16 | C[C@H](CO)N1C[C@H](C)[C@H](CN(C)S(=O)(=O)c2cccs2)Oc2c(NC(=O)Nc3ccc(C(F)(F)F)cc3)cccc2C1=O | inconclusive: 23.3%
17 | Cc1cccnc1C(NC(=O)C1CCN(CCOc2ccc(Cl)cc2Cl)CC1)c1ccc(Cl)cc1 (configuration not stated) | inconclusive: 36.8%

Looked up one by one from above, 2 records:
Row | Compound | CPE inhibition
11 | COc1ccc(NC(=O)Nc2ccc3c(c2)C(=O)N([C@@H](C)CO)C[C@@H](C)[C@@H](CN(C)Cc2ccccc2)OCCCC[C@H](C)O3)cc1 | active: 42.3%
8 | Cc1cc2nc(N3CCN(C(=O)c4cccs4)CC3)sc2cc1C | inconclusive: 22.6%
